Source: patent EP1994944A1 (Laboratorios SALVAT, S.A., priority 2007, dated 2008)

Assay: general procedure: Fmoc solid-phase peptide synthesis; Rink amide resin; N,N'-diisopropylcarbodiimide
Conditions: whole synthesis, scale 0.36 mmol

2-(2-Amino-3-phenylpropionylamino)-N-{[({carbamoylmethyl-[2-(2,4-dichlorophenyl)ethyl]carbamoyl}methyl)-(3,3-diphenylpropyl)carbamoyl]-methyl}-N-[2-(2,4-dichiorophenyl)ethyl]-3-methylbutyramide
final HPLC purity (analytical RP-HPLC, UV 220 nm): ≥98% purity | isolated mass: 196 mg | isolated yield: yield 55%
